{
  "source": "patent US20240350456A1",
  "about": "“COMPOSITIONS AND METHODS FOR DIAGNOSING AND TREATING INFLAMMATORY CONDITIONS” (RUTGERS, THE STATE UNIVERSITY OF NEW JERSEY, priority 2023, published 2024)",
  "test_system": "polarized human Caco-2-BBE cells",
  "experiment": "Nitric oxide production in polarized Caco-2-BBE cells",
  "type": "cell-based",
  "data": [
    {"molecule": "NCCC[C@H](N)C(=O)O", "note": "[ornithine]", "values": [
      {"measurement": "NO production (fluorescence intensity)", "result": "NO production increases"}
    ]}
  ]
}
